Reference: publication PMC7021683, “RNA sequence and length contribute to RNA-induced conformational change of TLS/FUS”
Positions count from the first letter of the chain named. Construct, isoform or probe ends are uncertain for at least one entry. For some assays here: Weaker means in comparison with the reference protein, sequence or condition of that experiment. At least one verdict was read from the data and is not stated in words by the source. Tags and fusion partners may be left off the protein sequences shown.

Experiments:
Test in all cases: FRET
[1] = molecular target: T1, MBP-BFP-TLS-GFP-6xHis (TLS/FUS) (UniProt P35637); conditions: recombinant protein; protein details: N-term MBP, TagBFP, C-term TagGFP2, 6xHis
T1 sequence (looked up, limits assumed): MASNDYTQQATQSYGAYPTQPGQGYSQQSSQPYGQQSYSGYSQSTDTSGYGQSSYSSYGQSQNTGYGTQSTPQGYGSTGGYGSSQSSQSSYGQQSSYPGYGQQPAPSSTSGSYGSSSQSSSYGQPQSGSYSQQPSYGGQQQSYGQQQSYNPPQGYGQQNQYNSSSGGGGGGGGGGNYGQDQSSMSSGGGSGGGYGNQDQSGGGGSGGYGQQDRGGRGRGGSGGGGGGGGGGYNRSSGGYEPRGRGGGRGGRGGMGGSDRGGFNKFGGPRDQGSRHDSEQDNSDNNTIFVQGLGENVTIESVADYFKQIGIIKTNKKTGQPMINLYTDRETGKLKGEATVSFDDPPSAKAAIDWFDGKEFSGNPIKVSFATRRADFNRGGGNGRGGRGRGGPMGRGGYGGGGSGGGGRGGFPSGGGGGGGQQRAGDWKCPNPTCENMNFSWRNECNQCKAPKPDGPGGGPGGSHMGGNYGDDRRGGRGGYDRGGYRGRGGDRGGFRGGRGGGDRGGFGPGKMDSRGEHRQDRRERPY

TLS K510R = molecular target: T2, TLS K510R (UniProt P35637); conditions: recombinant protein
T2 sequence (looked up, limits assumed): T1 sequence (looked up, limits assumed) with K510R

TLS P525L = molecular target: T3, TLS P525L (UniProt P35637); conditions: recombinant protein
T3 sequence (looked up, limits assumed): T1 sequence (looked up, limits assumed) with P525L

Row | Sequence | binding result [1] | binding result (TLS K510R) | binding result (TLS P525L)
1 | GGUUUGAUGA [R10] | binds more weakly |  | 
2 | UUUUUUUUUUUUUUUUUUUUUUUUUUUUUUU [U31] | binds |  | 
3 | UUUUUUUUUUUUU [U13] | binds more weakly |  | 
4 | GAGAGU [R6 mutant GAGAGU] | binds more weakly |  | 
5 | AAGGGU [R6 mutant AAGGGU] | binds more weakly |  | 
6 | GUUAAGAGGGUACGGUGGUUUGAUGACACUG [R31 (pncRNA D1-1)] |  | binds | binds
7 | GUUAAGA [R7] | binds more weakly |  | 
